The text below walks through data of US4545991A, “Difficidin and derivative antibacterials” (Merck & Co., Inc., priority 1983, dated 1985).

This data set deals with calf intestinal mucosa alkaline phosphatase. Put plainly: alkaline phosphatase dephosphonylation of oxydifficidin. The class given is biochemical.

Turning to `C=CC=C(C)CCC1CC=CC=C(C)C(OP(=O)(O)O)CCCC=CC=CC=CC(O)C(C)C(=C)CC(=O)O1` (centres unmarked) [Oxydifficidin, oxydifficidin], the “inactivation by alkaline phosphatase” value is reported as “ready inactivation”. In addition, the “transformation by alkaline phosphatase” value (60 min. incubation at 28° C., TRIS pH 8.0) is “the majority of oxydifficidin (Rf 0.59) had been transformed into a new substance”.
